# PubChem BioAssay (NCATS)
# Amino acid sequences for entries named in this document (tags omitted). A change or cut given only in a name is not applied to a line headed by its entry. Residues count along the entry.
# UniProt P08482: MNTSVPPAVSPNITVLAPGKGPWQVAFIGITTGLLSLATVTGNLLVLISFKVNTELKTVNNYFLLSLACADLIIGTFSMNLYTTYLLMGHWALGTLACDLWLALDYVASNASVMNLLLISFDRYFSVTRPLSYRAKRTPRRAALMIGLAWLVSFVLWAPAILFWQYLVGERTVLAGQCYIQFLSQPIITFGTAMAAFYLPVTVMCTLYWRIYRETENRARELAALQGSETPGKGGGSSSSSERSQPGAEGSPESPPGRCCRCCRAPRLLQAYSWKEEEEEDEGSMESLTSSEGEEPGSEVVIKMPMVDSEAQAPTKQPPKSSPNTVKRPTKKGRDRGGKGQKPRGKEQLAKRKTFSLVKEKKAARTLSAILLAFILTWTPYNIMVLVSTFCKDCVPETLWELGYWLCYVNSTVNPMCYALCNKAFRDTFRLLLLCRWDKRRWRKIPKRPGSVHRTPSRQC
# UniProt Q13526, whole entry, looked up: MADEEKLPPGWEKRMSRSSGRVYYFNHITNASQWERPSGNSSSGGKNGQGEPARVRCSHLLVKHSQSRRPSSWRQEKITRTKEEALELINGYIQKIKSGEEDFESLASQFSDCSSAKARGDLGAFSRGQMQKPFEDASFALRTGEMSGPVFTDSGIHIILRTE
# UniProt P02791, 2-175 limits assumed: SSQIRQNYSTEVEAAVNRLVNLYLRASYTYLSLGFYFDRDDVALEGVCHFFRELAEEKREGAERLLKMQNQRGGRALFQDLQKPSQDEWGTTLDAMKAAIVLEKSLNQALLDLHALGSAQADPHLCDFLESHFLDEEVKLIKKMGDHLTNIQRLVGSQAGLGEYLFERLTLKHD
# Values joined by “and” are separate entries in the source; they are usually repeats but may differ in a detail not shown here. Equal values may be shown once. Inconclusive means that the source gave no clear call. Such entries were picked first, then a sample of the others. For some of these results: Where the call is inconclusive, the potency comes from a doubtful curve fit. Active and inactive are the calls of the source. Unless noted, the call rests on the fitted dose curve; in most records, active means well fitted curve in the direction sought with a large enough effect; inconclusive means small, poorly fitted or top-dose-only effect, or another doubt; inactive means no such curve, though single readings can be large; an effect the other way counts as inactive or inconclusive.
# How the values were obtained:
# [1] = tested on: Zika virus NS2B-NS3 protease (linked construct); assay: 384 well plate NINDS Rhodamine confirmatory qHTS for Zika virus inhibitors (AID 1347164);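 further: fluorescence from protease cleavage of Ac-LKRR-rhodamine 110 substrate; potency means the concentration at half of the fitted maximal effect; nearly all actives have a fitted effect of over 65% in size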
# Procedure, shortened: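 Linked protease at a final 5 nM, 30 nM or 60 nM was preincubated ~15 min with compounds, then given 10 microM Ac-LKRR-Rhodamine 110. Fluorescence (ex 485/em 538 nm) after 25 min in the dark at room temperature.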
# [2] = HepG2 cells viability qHTS for Zika virus inhibitors (AID 1347168); further: on the % scale 0 is the no-effect control and ±100 the full control effect
# Procedure, shortened: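 Cells seeded at 2.5 x 10^5 cells/mL in DMEM with 4% FBS and attached overnight at 37 degrees C, then exposed to compound for 24 to 48 hours. Viability read as ATP content by CellTiter Glo luminescence.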
# [3] = qHTS of pediatric cancer cell lines to identify multiple opportunities for drug repurposing: Confirmatory screen for DAOY cells (AID 1347114); further: nearly all actives have a fitted effect of over 65% in size; further: potency means the concentration at half of the fitted maximal effect
# Procedure, shortened: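 Viability measured as metabolically active cells via CellTiter-Glo luminescence following 48 hours of compound exposure, 11-point dilutions in confirmatory testing. 500-1,000 cells/well plated 5 hours before dosing; controls were DMSO and 2.3 µM bortezomib.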
# [4] = qHTS of pediatric cancer cell lines to identify multiple opportunities for drug repurposing: Confirmatory screen for U-2 OS cells (AID 1347122); further: potency means the concentration at half of the fitted maximal effect; nearly all actives have a fitted effect of over 65% in size
# Procedure, shortened: (§1)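 Viability after 48 h compound treatment at 37C, 500-1,000 cells/well, read as ATP luminescence with CellTiter-Glo. Primary screens used 11-point (MIPE, 0.78 nM-46 µM) or 8-point (NPC, 0.59 nM-46 µM) final concentrations; follow-up screens used 11-point dilutions.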
# [5] = qHTS of pediatric cancer cell lines to identify multiple opportunities for drug repurposing: Confirmatory screen for Saos-2 cells (AID 1347127); further: potency means the concentration at half of the fitted maximal effect; nearly all actives have a fitted effect of over 60% in size
# Procedure, shortened: as §1
# [6] = qHTS of pediatric cancer cell lines to identify multiple opportunities for drug repurposing: Confirmatory screen for OHS-50 cells (AID 1347128);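 further: potency means the concentration at half of the fitted maximal effect; compound exposure lasted 48 h at 37 degrees C; nearly all actives have a fitted effect of over 55% in size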
# Procedure, shortened: as §1
# [7] = NCATS anti-infectives library activity on the primary C. elegans qHTS viability assay (AID 1745855; calls by dose curve)
# Procedure, shortened: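 Viability read-out is GFP fluorescence of PE254-GFP-FLuc C. elegans, measured by laser cytometry (488 nm) at day 0, 3 and 7. Ten L1 worms per well were incubated 7 days at 21 °C with compounds and bacterial capsules in S medium.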
# [8] = qHTS assay to identify inhibitors of the type 1 interferon - major histocompatibility complex class I in skeletal muscle: Counter screen cell viability and HiBit confirmation (AID 1347412); conditions: iHSKM muscle cells + IFN-b, HiBiT or CellTiter-Glo, 24 h; further: potency means the concentration at half of the fitted maximal effect; nearly all actives have a fitted effect of over 60% in size
# Procedure, shortened: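 HLA-B*08:01–HiBiT knock-in immortalized human myoblasts (C25cl48) stimulated with 4.0 ng/ml human IFN-beta and dosed with compound in a 12-point 1:3 titration (top final 46 uM). After 24 hrs at 37 C, HiBiT lytic luminescence or CellTiter Glo ATP read out.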
# [9] = Quantitative High-Throughput drug screen in 47 multiple myeloma cell lines against the NCATS MIPE library collection: Karpas25_ECACC cell viability assay (AID 1918968; further: nearly all actives have a fitted effect of over 35% in size; further: potency means the concentration at half of the fitted maximal effect)
# Procedure, shortened: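 qHTS of the MIPE 4.0 collection: 500 myeloma cells/well, 48 h drug exposure at 37C in 5% CO2, then CellTiter-Glo for 5 min at room temperature before luminescence reading.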
# [10] = Quantitative High-Throughput drug screen in 47 multiple myeloma cell lines against the NCATS MIPE library collection: VP6_DJ cell viability assay (AID 1919867); further: nearly all actives have a fitted effect of over 40% in size; further: potency means the concentration at half of the fitted maximal effect
# Procedure, shortened: (§2)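 500 cells/well per myeloma line exposed to pinned MIPE 4.0 compounds for 48 h at 37 °C, 5% CO2. Viability read as ATP by CellTiter-Glo luminescence, normalised to DMSO-only (100%) and media-only (0%) wells.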
# [11] = qHTS of pediatric cancer cell lines to identify multiple opportunities for drug repurposing: Confirmatory screen for LAN-5 cells (AID 1347113); further: nearly all actives have a fitted effect of over 65% in size; further: potency means the concentration at half of the fitted maximal effect; on activity change, negative = cytotoxicity: on the % scale 0 is the no-effect control and ±100 the full control effect
# Procedure, shortened: as §1
# [12] = qHTS of pediatric cancer cell lines to identify multiple opportunities for drug repurposing: Confirmatory screen for BT-37 cells (AID 1347117); further: nearly all actives have a fitted effect of over 55% in size; further: potency means the concentration at half of the fitted maximal effect
# Procedure, shortened: as §1
# [13] = qHTS of pediatric cancer cell lines to identify multiple opportunities for drug repurposing: Confirmatory screen for MG 63 (6-TG R) cells (AID 1347119); conditions: MG-63 (6-TG resistant) osteosarcoma viability; activity change, negative = cytotoxicity: at 45.9 µM (top of the series); further: nearly all actives have a fitted effect of over 55% in size; further: potency means the concentration at half of the fitted maximal effect;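 on activity change, negative = cytotoxicity: plate controls were DMSO neutral control for no effect and bortezomib for full effect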
# Procedure, shortened: as §1
# [14] = qHTS assay for small molecule agonists of the antioxidant response element (ARE) signaling pathway (AID 651741; active means well fitted activation curve with a large enough effect in the signal ratio; inconclusive means small, poorly fitted or top-dose-only effect, or effect the other way, or a change in a side signal; the % refers to the signal ratio; further: potency means the concentration at half of the fitted maximal effect; on activation: % of control where 0% means no effect); conditions: HepG2 ARE-bla reporter, beta-lactamase FRET ratio, 16 h; activation: at 96 µM (top of the series)
# Procedure, shortened: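 CellSensor ARE-bla HepG2 cells (2,000/well) carrying ARE-driven beta-lactamase, exposed 16 h at 37 C. LiveBLAzer B/G FRET substrate added for 2 h at room temperature; fluorescence intensity read.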
# [15] = target: Muscarinic acetylcholine receptor M1 (Rattus norvegicus) (UniProt P08482); assay: qHTS Assay for Antagonists of Acetylcholine Muscarinic M1 Receptor: Measurement of IP-One Response (AID 944); further: potency means the concentration at half of the fitted maximal effect; nearly all actives have a fitted effect of over 75% in size
# [16] = qHTS to identify inhibitors of the type 1 interferon - major histocompatibility complex class I in skeletal muscle: primary screen against the NCATS LOPAC collection (AID 1347405); conditions: iHSKM muscle cells, IFN-b-induced MHC-I HiBiT luminescence, 24 h; activity change, negative = inhibition: at 45.9 µM (top of the series);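 further: lytic HiBiT luminescence reporting HLA-B protein level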; further: potency means the concentration at half of the fitted maximal effect; on activity change, negative = inhibition: on the % scale 0 is the no-effect control and ±100 the full control effect
# Procedure, shortened: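 CRISPR-engineered immortalized human myoblasts (C25cl48) with HiBiT fused to endogenous HLA-B*08:01, stimulated with 4 ng/ml IFN-beta. LOPAC compounds tested as a 7-point 1:4.3 titration (top 46 uM final), 24 h at 37 C; lytic HiBiT luminescence read.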
# [17] = target: Peptidyl-prolyl cis-trans isomerase NIMA-interacting 1 (Homo sapiens) (UniProt Q13526); assay: qHTS Validation Assay to Find Inhibitors of Pin1 (AID 504536; active means well fitted inhibition curve with a large enough effect in the polarisation, with a control signal flat, not every such curve was filed as active; inconclusive means small, poorly fitted or top-dose-only effect, or effect the other way; the % refers to the polarisation; further: potency means the concentration at half of the fitted maximal effect)
# Procedure, shortened: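 Fluorescence polarization competition: compounds (titration) displace HiFluor-488-labeled Pin1-1b peptide from Pin1 (0.3 uM final) in pH 7.5 HEPES buffer with DTT, 10 min at room temperature; %Activity normalized to no-enzyme wells, curves fitted.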
# [18] = target: Ferritin light chain (Equus caballus) (UniProt P02791); assay: qHTS Validation Assay for Identification of Novel General Anesthetics (AID 2323); further: potency means the concentration at half of the fitted maximal effect; on activity change, negative = inhibition: on the % scale 0 is the no-effect control and ±100 the full control effect
# Procedure, shortened: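 Competitive displacement of profluorescent 1-aminoanthracene (1-AMA, 50% saturated solution in PBS) from 10 uM horse-spleen apoferritin. Compounds incubated 10 min at room temperature; fluorescence read at 380 nm excitation/535 nm emission, normalized to free 1-AMA and complex, fitted with four-parameter Hill equation.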
# [19] = Quantitative High-Throughput drug screen in 47 multiple myeloma cell lines against the NCATS MIPE library collection: NCIH929_DSMZ cell viability assay (AID 1918978); further: nearly all actives have a fitted effect of over 35% in size; further: potency means the concentration at half of the fitted maximal effect
# Procedure, shortened: as §2
# [20] = Quantitative High-Throughput drug screen in 47 multiple myeloma cell lines against the NCATS MIPE library collection: OPM1_PLB cell viability assay (AID 1918989); further: nearly all actives have a fitted effect of over 40% in size
# Procedure, shortened: as §2
structure (smiles),measurement,setting,value
C=C1c2cccc(O)c2C(O)=C2C(=O)[C@]3(O)C(O)=C(C(N)=O)C(=O)[C@@H](N(C)C)[C@@H]3[C@@H](O)[C@H]12,Potency,[1],active: 251 µM
same,Potency,[2],inactive
CNC(=O)CN1CCC(Oc2cc3c(Nc4cccc(Cl)c4F)ncnc3cc2OC)CC1,Potency,[3],inactive
same,Potency,[4],"inconclusive: 6.57 µM [cytotoxic, partial curve, poor fit]"
same,Potency,[5],"inconclusive: 2.33 µM [cytotoxic, full curve, poor fit]"
same,Potency,[6],"inconclusive: 1.17 µM [cytotoxic, full curve]"
O=C1C(=O)c2ccccc2C(O)=C1C1CCC(c2ccc(Cl)cc2)CC1 (stereo not drawn),Potency,[7],inactive
COC(=O)Nc1cc(Nc2cc(NC3CC3)c3ncc(C#N)n3n2)c(Cl)c(N2CCN(C)CC2)c1,Potency,[8]; Viability,active: 17.6 µM
Nc1nc(=O)n([C@H]2C[C@H](O)[C@@H](CO)O2)cc1F,Potency,[9],inactive
same,Potency,[10],"inconclusive: 3.3 nM [cytotoxic, full curve, poor fit]"
CO[C@@H]1[C@H](N(C)C(=O)c2ccccc2)C[C@H]2O[C@]1(C)n1c3ccccc3c3c4c(c5c6ccccc6n2c5c31)C(=O)NC4,Potency,[11],"inconclusive: 3.29 µM [cytotoxic, full curve, poor fit]"
same,Potency,[12],"inconclusive: 3.69 µM [cytotoxic, full curve, poor fit]"
same,Potency,[13],"inconclusive: 4.14 µM [cytotoxic, partial curve, poor fit]"
same,Potency,[5],"inconclusive: 3.29 µM [cytotoxic, full curve, poor fit]"
same,Potency,[6],"inconclusive: 11.7 µM [cytotoxic, single point]"
same,Potency,[7],inactive
same,Potency,[9],active: 2.35 µM
same,Potency,[8]; HiBiT,"inconclusive: 7.87 µM [inhibitor, full curve]"
same,Potency,[8]; Viability,"inconclusive: 1.11 µM [cytotoxic, full curve]"
Cc1c(N(C)C)c(=O)n(-c2ccccc2)n1C,Potency,[14],"inactive and inconclusive: 47.3 µM [activator, partial curve]"
CCC1C(=O)OCC1Cc1cncn1C (stereo not drawn),Potency,[17],"inconclusive: 8.49 µM [falling, single point]"
C#CCN(C)CCCOc1ccc(Cl)cc1Cl,Potency,[15],"inconclusive: 14.1 µM [inhibitor, partial curve, poor fit]"
same,Potency,[18],"inconclusive: 39.8 µM [inhibitor, partial curve]"
same,Potency,[17],"inconclusive: 2.39 µM [falling, partial curve, poor fit]"
CCCCCCCCCCCCCCCCOP(=O)([O-])OCC[N+](C)(C)C,outcome,[7],inactive [at 8.33 µM]
CCn1cc(C(=O)O)c(=O)c2cc(F)c(N3CCNCC3)cc21,Potency,[2],inactive
same,Potency,[9],inactive
same,Potency,[19],inactive
same,Potency,[20],inactive
same,Potency,[10],inactive
CCCCNC(=O)NS(=O)(=O)c1ccc(C)cc1,Potency,[14],inactive
same,Potency,[16],"inconclusive: 22.4 µM [inhibitor, partial curve, poor fit]"
CCC(CC)(CC(=O)Nc1cccc(/C=C/c2nc(C3CCC3)cs2)c1)C(=O)O,Potency,[1],"inconclusive: 89.1 µM [inhibitor, full curve, poor fit]"
CCCC(=O)O[C@]1(C(=O)COC(=O)CC)CC[C@H]2[C@@H]3CCC4=CC(=O)CC[C@]4(C)[C@H]3[C@@H](O)C[C@@]21C,Potency,[11],inactive
same,Potency,[3],"inconclusive: 5.74 µM [cytotoxic, single point]"
same,Potency,[12],inactive
same,Potency,[13],inactive
same,Potency,[4],"inconclusive: 4.56 µM [cytotoxic, full curve, poor fit]"
C[C@]12CC[C@@H]3c4ccc(O)cc4CC[C@H]3[C@@H]1CCC2=O,activation,[14],inconclusive: 1.07%
CO[C@@]1(NC(=O)CSCC#N)C(=O)N2C(C(=O)O)=C(CSc3nnnn3C)CS[C@@H]21,Potency,[18],inactive
same,Potency,[17],"inconclusive: 26.9 µM [falling, partial curve, poor fit]"
CC(=O)OC(C)C[N+](C)(C)C (stereo not drawn),Potency,[18],inactive
O=C1NCC2(CCN(CCc3ccccc3)CC2)O1,Potency,[15],"inconclusive: 22.4 µM [inhibitor, partial curve, poor fit]"
CC1=C(CC(=O)O)c2cc(F)ccc2/C1=C\c1ccc(S(C)(=O)=O)cc1,Potency,[16],inactive
CN1[C@@H]2CCC[C@@H]1CC(NC(=O)c1nn(C)c3ccccc13)C2 (stereo partly drawn),Potency,[19],inactive
same,Potency,[20],inactive
same,Potency,[10],"inconclusive: 1.2 nM [cytotoxic, full curve, poor fit]"
COc1ccc(CCC(=O)c2c(O)cc(O[C@@H]3O[C@H](CO)[C@@H](O)[C@H](O)[C@@H]3O[C@@H]3O[C@@H](C)[C@H](O)[C@@H](O)[C@@H]3O)cc2O)cc1O,Potency,[19],"inconclusive: 7.43 µM [cytotoxic, full curve]"
same,Potency,[20],inactive

# In another format: entries from further up
structure (smiles)	measurement	setting	value
CO[C@@H]1[C@H](N(C)C(=O)c2ccccc2)C[C@H]2O[C@]1(C)n1c3ccccc3c3c4c(c5c6ccccc6n2c5c31)C(=O)NC4	Potency	[11]	inconclusive: 3.29 µM [cytotoxic, full curve, poor fit]
same	Potency	[6]	inconclusive: 11.7 µM [cytotoxic, single point]
CN1[C@@H]2CCC[C@@H]1CC(NC(=O)c1nn(C)c3ccccc13)C2 (stereo partly drawn)	Potency	[20]	inactive
